Data as given in patent US20220088024A1, “METHODS FOR TREATING CANCER USING TOZADENANT” (Biotie Therapies, Inc., priority 2018, published 2022).
Values joined by “and” are separate entries in the source; they are usually repeats but may differ in a detail not shown here. Identical values can stand only once. This continues a long series; more values of the same kind are listed elsewhere.

Columns and labels:
[1] = system: AT-3ova CD73+ tumour (mouse breast carcinoma cell line AT-3); assay: Example 3: anti-tumor responses of SYN-115 QD or BID in the AT-3ova CD73+ tumour cell mouse model (tumor area); assay type: in vivo, C57/BL6 mice; design: key: tumor area, width × length in mm^2; details: Anti-PD-1 (200 ug)+SYN-115 (100 mg/kg) BID
Protocol: The C57BL/6 mouse breast carcinoma cell line AT-3 was obtained from Dr. Trina Stewart (Griffith University, Nathan, QLD, Australia. Tumor cell lines were transduced to express chicken ovalbumin peptide and CD73 as previously described (1, 2, 3). Tumor cells are periodically verified to be Mycoplasma negative by the Victorian Infectious Diseases References Lab (Melbourne, VIC, Australia) by PCR analysis. Tumor cells were grown in DMEM supplemented with 10% FCS, GlutaMAX, and penicillin/streptomycin. 5×10^5 cells were resuspended in PBS and injected s.c. into C57/BL6 mice in a 100 μL volume. At day 14 tumors were measured and mice were randomized into distinct treatment groups to ensure that each group had tumors of similar size at the onset of treatment. Mice were treated i.p. at days 14, 18, 22, and 26 with either isotype control (2A3; 200 μg/mouse) or anti-PD-1 mAb (RMP1-14, 200 μg/mouse) and where indicated SYN-115 (Batch 71236AA002) at the indicated dose or vehicle control once or twice-daily via oral gavage on days 14 to 29. To calculate a dose of SYN-115 mouse weight was estimated to be 20 g per mouse. Therefore, 100 mg/kg=2 mg per mouse in […] which is equivalent to 10 mg/ml. To make up 40 mL, 400 milligrams of SYN-115 was weighed and added into a Falcon tube, then 1 mL of Tween 80 was added and mixed into a paste and then 39 mL of 1% Methyl Cellulose was added. The solution was vortexed and then left on a rotating mixer for at least 2 hours and maintained at 4° C. Tumor measurements were taken 2-3 times per week. Tumor sizes were determined by width * length and mice were culled when tumors reached the ethical limit of 150 mm^2.

[2] = system: CT26 colon carcinoma tumor; assay: Example 4: anti-tumor responses of SYN-115 in the CT26 tumor mouse model (tumor area, survival); assay type: in vivo, BALB/c mice; design: key: tumor area, width*length, in mm^2
Protocol: The BALB/c mouse colon carcinoma cell line CT26 was cultured in RPMI supplemented with 10% FCS, GlutaMAX, and penicillin/streptomycin. Tumor cells are periodically verified to be Mycoplasma negative by the Victorian Infectious Diseases References Lab (Melbourne, VIC, Australia) by PCR analysis. 1×10^5 cells were resuspended in PBS and injected s.c. into BALB/c mice in a 100 μL volume. At day 9, tumors were measured and mice were randomized into distinct treatment groups to ensure that each group had tumors of similar size at the onset of treatment. Mice were treated i.p. at days 9, 13 and 17 with either isotype control (2A3; 200 μg/mouse) or anti-PD-1 mAb (RMP1-14, 200 μg/mouse) and where indicated, SYN-115 (Batch 71236AA002) at the indicated dose or vehicle control once-daily via oral gavage on days 14 to 29. To calculate a dose of SYN-115 mouse weight was estimated to be 20 g per mouse. Therefore, 100 mg/kg=2 mg per mouse in […] which is equivalent to 10 mg/ml. To make up 40 mL, 400 milligrams of SYN-115 was weighed and added into a Falcon tube, then 1 mL of Tween 80 was added and mixed into a paste and then 39 mL of 1% Methyl Cellulose was added. The solution was vortexed and then left on a rotating mixer for at least 2 hours and maintained at 4° C. Tumor measurements were taken 2-3 times per week. Tumor sizes were determined by width * length and mice were culled when tumors reached the ethical limit of 150 mm^2.

[3] = system: CT26 colon carcinoma tumor; assay: Example 7: SYN-115 dose range as single agent in the CT26 tumor mouse model (tumor area, survival); assay type: in vivo, BALB/c mice; design: key: tumor area in mm^2 (width × length)
Protocol: The BALB/c mouse colon carcinoma cell line CT26 was cultured in RPMI supplemented with 10% FCS, GlutaMAX, and penicillin/streptomycin. Tumor cells are periodically verified to be Mycoplasma negative by the Victorian Infectious Diseases References Lab (Melbourne, VIC, Australia) by PCR analysis. 1×10^5 cells were resuspended in PBS and injected s.c. into BALB/c mice in a 100 μL volume. At day 7 tumors were measured and mice were randomized into distinct treatment groups to ensure that each group had tumors of similar size at the onset of treatment. Mice were treated with SYN-115 (Batch 71236AA006) at the indicated dose or vehicle control once-daily via oral gavage on days 7 to 20. To calculate a dose of SYN-115 mouse weight was estimated to be 20 g per mouse. Therefore, 100 mg/kg=2 mg per mouse in 200 μL, which is equivalent to 10 mg/ml. To make up 40 mL, 400 milligrams of SYN-115 was weighed and added into a Falcon tube, then 1 mL of Tween 80 was added and mixed into a paste and then 39 mL of 1% Methyl Cellulose was added. The solution was vortexed and then left on a rotating mixer for at least 2 hours and maintained at 4° C. Tumor measurements were taken 2-3 times per week. Tumor sizes were determined by width * length and mice were culled when tumors reached the ethical limit of 150 mm^2.

COc1ccc(N2CCOCC2)c2sc(NC(=O)N3CCC(C)(O)CC3)nc12 [SYN-115, 4-hydroxy-4-methyl-piperidine-1-carboxylic acid (4-methoxy-7-morpholin-4-yl-benzothiazol-2-yl)-amide]
Raw Tumor Measurements ([1]; Day 3): 21.15 and 23.32 and 19.32 and 20.28 and 26.8 and 23.03
Raw Tumor Measurements ([1]; Day 6): 27.93 and 25.52 and 36.92 and 24.96 and 40.04 and 30.25
Raw Tumor Measurements ([1]; Day 9): 32.33 and 36.72 and 38.4 and 35.88 and 43.46 and 41.04
Raw Tumor Measurements ([1]; Day 13): 31.2 and 45.9 and 52.8 and 43.32 and 41.86 and 43.12
Raw Tumor Measurements ([1]; Day 15): 39.76 and 43.52 and 52.14 and 41.76 and 50.88 and 63.36
Raw Tumor Measurements ([1]; Day 20): 48 and 94.34 and 74 and 55.44 and 77.05 and 77.22
Raw Tumor Measurements ([2]; Anti-PD-1 (200 ug)+SYN-115 (30 mg/kg), Day 0): 12.95 and 14.44 and 18.36 and 18.62 and 20.72 and 21.07
Raw Tumor Measurements ([2]; Anti-PD-1 (200 ug)+SYN-115 (30 mg/kg), Day 4): 27.45 and 34.72 and 42.88 and 40.71 and 53.4 and 41.89
Raw Tumor Measurements ([2]; Anti-PD-1 (200 ug)+SYN-115 (30 mg/kg), Day 19): 72.24 and 98.79 and 101.76
Raw Tumor Measurements ([2]; Anti-PD-1 (200 ug)+SYN-115 (100 mg/kg), Day 0): 13.02 and 13.12 and 18.4 and 18.48 and 20.79 and 21
Raw Tumor Measurements ([2]; Anti-PD-1 (200 ug)+SYN-115 (100 mg/kg), Day 15): 7.25
Raw Tumor Measurements ([2]; Anti-PD-1 (200 ug)+SYN-115 (100 mg/kg), Day 19): 0
Raw Tumor Measurements ([2]; Anti-PD-1 (200 ug)+SYN-115 (100 mg/kg), Day 22): 0
Raw Tumor Measurements ([2]; Anti-PD-1 (200 ug)+SYN-115 (100 mg/kg), Day 25): 0
Raw Tumor Measurements ([2]; Anti-PD-1 (200 ug)+SYN-115 (100 mg/kg), Day 28): 0
Tumor area, individual mice ([3]; SYN-115 30 mg/kg, Day 11, 30 mg/kg): 68.53 (2×) and 49 and 54.72 and 73.95 and 50.37
Tumor area, individual mice ([3]; SYN-115 30 mg/kg, Day 14, 30 mg/kg): 110.11 (2×) and 63.64 and 87.36 and 99.75 and 44.84
Tumor area, individual mice ([3]; SYN-115 30 mg/kg, Day 16, 30 mg/kg): 140.8 (2×) and 95.68 and 114.13 and 132.5 and 77.08
Tumor area, individual mice ([3]; SYN-115 50 mg/kg, Day 0, 50 mg/kg): 5.2 and 6.09 and 6.6 and 8.68 and 13.53
Tumor area, individual mice ([3]; SYN-115 50 mg/kg, Day 2, 50 mg/kg): 14.44 and 12.48 and 11.7 and 13.02 and 8.68
Tumor area, individual mice ([3]; SYN-115 50 mg/kg, Day 4, 50 mg/kg): 17.2 and 21.84 and 14.4 and 29.4 and 24.01
Tumor area, individual mice ([3]; SYN-115 50 mg/kg, Day 7, 50 mg/kg): 30.78 and 39.5 and 19.95 and 60.9 and 38.43
Tumor area, individual mice ([3]; SYN-115 50 mg/kg, Day 9, 50 mg/kg): 44.73 and 65.8 and 22.04 and 97.02 and 43.52
Tumor area, individual mice ([3]; SYN-115 50 mg/kg, Day 11, 50 mg/kg): 60.06 and 100.1 and 22.2 and 117.66 and 59.94
Tumor area, individual mice ([3]; SYN-115 50 mg/kg, Day 14, 50 mg/kg): 94.5 and 145.77 and 28.35 and 201.55 and 85.54
Tumor area, individual mice ([3]; SYN-115 50 mg/kg, Day 16, 50 mg/kg): 125.13 and 165.2 and 34.45 and 94.76
Tumor area, individual mice ([3]; SYN-115 50 mg/kg, Day 18, 50 mg/kg): 161.66 and 60.06 and 133.2
Tumor area, individual mice ([3]; SYN-115 50 mg/kg, Day 21, 50 mg/kg): 68.68 and 186.12
Tumor area, individual mice ([3]; SYN-115 50 mg/kg, Day 25): 169.36
Tumor area, individual mice ([3]; SYN-115 100 mg/kg 4 days on, 3 days off: drug holiday, Day 0, 100 mg/kg): 3.78 and 7.83 and 5.4 and 7.54 and 7.8 and 16.28
Tumor area, individual mice ([3]; SYN-115 100 mg/kg 4 days on, 3 days off: drug holiday, Day 2, 100 mg/kg): 2.88 and 12.3 and 7.56 and 9.92 and 6.67 and 19.11
Tumor area, individual mice ([3]; SYN-115 100 mg/kg 4 days on, 3 days off: drug holiday, Day 4, 100 mg/kg): 4.8 and 18.9 and 15.98 and 12.18 and 20.4 and 29.07
Tumor area, individual mice ([3]; SYN-115 100 mg/kg 4 days on, 3 days off: drug holiday, Day 7, 100 mg/kg): 16.81 and 24.94 and 35.28 and 34.1 and 34.45 and 42.78
Tumor area, individual mice ([3]; SYN-115 100 mg/kg 4 days on, 3 days off: drug holiday, Day 9, 100 mg/kg): 25.85 and 33.63 and 52.92 and 47.12 and 57.27 and 60.68
Tumor area, individual mice ([3]; SYN-115 100 mg/kg 4 days on, 3 days off: drug holiday, Day 11, 100 mg/kg): 35.75 and 40.87 and 71.28 and 67.76 and 82.65 and 79.68
Tumor area, individual mice ([3]; SYN-115 100 mg/kg 4 days on, 3 days off: drug holiday, Day 14, 100 mg/kg): 69.16 and 55.3 and 121.68 and 105.3 and 100.57 and 114.46
Tumor area, individual mice ([3]; SYN-115 100 mg/kg 4 days on, 3 days off: drug holiday, Day 16, 100 mg/kg): 82.56 and 69.7 and 164.7 and 125.24 and 118.8 and 133.28
Tumor area, individual mice ([3]; SYN-115 100 mg/kg 4 days on, 3 days off: drug holiday, Day 18, 100 mg/kg): 117.81 and 100.88 and 172.55 and 132.6 and 193.88
Tumor area, individual mice ([3]; SYN-115 100 mg/kg 4 days on, 3 days off: drug holiday, Day 21, 100 mg/kg): 200.66 and 110.21 and 176.9
Tumor area, individual mice ([3]; SYN-115 100 mg/kg 4 days on, 3 days off: drug holiday, Day 25): 153.67
Tumor area, individual mice ([3]; SYN-115 100 mg/kg, Day 0, 100 mg/kg): 5.22 and 5.72 and 6.72 and 7.29 and 8.64 and 13.68
Tumor area, individual mice ([3]; SYN-115 100 mg/kg, Day 2, 100 mg/kg): 8.12 and 9.24 and 10.36 and 9.28 and 18.8 and 12.8
Tumor area, individual mice ([3]; SYN-115 100 mg/kg, Day 4, 100 mg/kg): 13.12 and 16.5 and 22.96 and 19.2 and 24.48 and 19.6
Tumor area, individual mice ([3]; SYN-115 100 mg/kg, Day 7, 100 mg/kg): 21.6 and 46.86 and 27.73 and 29.58 and 48.28 and 43.32
Tumor area, individual mice ([3]; SYN-115 100 mg/kg, Day 9, 100 mg/kg): 35.19 and 79.17 and 43.66 and 41.3 and 69.66 and 80.58
Tumor area, individual mice ([3]; SYN-115 100 mg/kg, Day 11, 100 mg/kg): 41.25 and 116.55 and 53.12 and 51 and 100 and 109.61
Tumor area, individual mice ([3]; SYN-115 100 mg/kg, Day 14, 100 mg/kg): 60.52 and 200.2 and 68.87 and 70.84 and 160.48 and 176.85
Tumor area, individual mice ([3]; SYN-115 100 mg/kg, Day 16, 100 mg/kg): 80.36 and 103.53 and 86.52
Tumor area, individual mice ([3]; SYN-115 100 mg/kg, Day 18, 100 mg/kg): 106.56 and 118.8 and 106
Tumor area, individual mice ([3]; SYN-115 100 mg/kg, Day 21, 100 mg/kg): 158.73 and 166.75 and 125.35
Tumor area, individual mice ([3]; SYN-115 100 mg/kg, Day 25): 177.32
